# Some of the results follow.
# B1: Epa19 (Candida glabrata) (protein)
# chain: MGSSHHHHHHSSGLVPRGSHMASSKDPTRFPIGCSPQVLKTQPGLAVKLYSYGHPVPGCSYITYQYPDFPRSGYKKERKLADITGVNGKIDIDLKPNDPCRVLTGHLPSNYNYPDTLTYTNFTMILYGYFQPKVTGYHTFNLEADDLLFMNLGAGNAFDCCKAESTLDNFGNYQSYSLWGSDYAKANITVFLVSGVYYPIRLFYVNRDNNAVIDFSFTTEFDKEKVHDFTSYFFSASDGEQCPGSV
# Legend:
# Experiment in all cases: glycan array binding signal (z-score within array); higher = stronger binding
# Details in all cases: glycan notation: IUPAC condensed, linker removed
# [1] = target: Fuc(a1-2)Gal
# Summary of the method: (§1)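 Columns mapping to the same glycan were averaged after glycan names were converted to IUPAC-condensed notation. The data come from 3228 arrays in the Consortium for Functional Glycomics database, limited to those with an available protein sequence. Binding is reported as a within-array Z-score averaged across arrays of one protein sequence and across linkers.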
# [2] = target: Fuc(a1-2)Gal(b1-3)GalNAc
# Summary of the method: as §1
# [3] = target: Fuc(a1-2)Gal(b1-3)GalNAc(a1-3)[Fuc(a1-2)]Gal(b1-4)Glc
# Summary of the method: as §1
# [4] = target: Fuc(a1-2)Gal(b1-3)GalNAc(a1-3)[Fuc(a1-2)]Gal(b1-4)GlcNAc
# Summary of the method: as §1
# [5] = target: Fuc(a1-2)Gal(b1-3)GalNAc(b1-3)Gal
# Summary of the method: as §1
# [6] = target: Fuc(a1-2)Gal(b1-3)GalNAc(b1-3)Gal(a1-4)Gal(b1-4)Glc
# Summary of the method: as §1
# [7] = target: Fuc(a1-2)Gal(b1-3)GalNAc(b1-4)[Neu5Ac(a2-3)]Gal(b1-4)Glc
# Summary of the method: as §1
# [8] = target: Fuc(a1-2)Gal(b1-3)GlcNAc
# Summary of the method: as §1
# [9] = target: Fuc(a1-2)Gal(b1-3)GlcNAc(b1-2)Man(a1-3)[Fuc(a1-2)Gal(b1-3)GlcNAc(b1-2)Man(a1-6)]Man(b1-4)GlcNAc(b1-4)GlcNAc
# Summary of the method: as §1
# [10] = target: Fuc(a1-2)Gal(b1-3)GlcNAc(b1-2)Man(a1-3)[Fuc(a1-2)Gal(b1-3)GlcNAc(b1-2)Man(a1-6)]Man(b1-4)GlcNAc(b1-4)[Fuc(a1-6)]GlcNAc
# Summary of the method: as §1
# [11] = target: Fuc(a1-2)Gal(b1-3)GlcNAc(b1-3)Gal(b1-4)Glc
# Summary of the method: as §1
# [12] = target: Fuc(a1-2)Gal(b1-3)GlcNAc(b1-3)GalNAc
# Summary of the method: as §1
# [13] = target: Fuc(a1-2)Gal(b1-3)GlcNAc(b1-3)[Fuc(a1-2)Gal(b1-3)GlcNAc(b1-6)]GalNAc
# Summary of the method: as §1
# [14] = target: Fuc(a1-2)Gal(b1-3)GlcNAc(b1-3)[Gal(b1-4)GlcNAc(b1-6)]Gal(b1-4)Glc
# Summary of the method: as §1
# [15] = target: Fuc(a1-2)Gal(b1-3)GlcNAc(b1-3)[Neu5Ac(a2-6)Gal(b1-4)GlcNAc(b1-6)]Gal(b1-4)Glc
# Summary of the method: as §1
# [16] = target: Fuc(a1-2)Gal(b1-3)GlcNAc6S
# Summary of the method: as §1
# [17] = target: Fuc(a1-2)Gal(b1-3)[Fuc(a1-4)]GlcNAc
# Summary of the method: as §1
# [18] = target: Fuc(a1-2)Gal(b1-3)[Fuc(a1-4)]GlcNAc(b1-2)Man(a1-3)[Fuc(a1-2)Gal(b1-3)[Fuc(a1-4)]GlcNAc(b1-2)Man(a1-3)]Man(b1-4)GlcNAc(b1-4)GlcNAc
# Summary of the method: as §1
# [19] = target: Fuc(a1-2)Gal(b1-3)[Fuc(a1-4)]GlcNAc(b1-2)Man(a1-3)[Fuc(a1-2)Gal(b1-3)[Fuc(a1-4)]GlcNAc(b1-2)Man(a1-6)]Man(b1-4)GlcNAc(b1-4)[Fuc(a1-6)]GlcNAc(b1-4)[Fuc(a1-6)]GlcNAc
# Summary of the method: as §1
# [20] = target: Fuc(a1-2)Gal(b1-3)[Fuc(a1-4)]GlcNAc(b1-3)[Fuc(a1-3)[Gal(b1-4)]GlcNAc(b1-6)]Gal(b1-4)Glc
# Summary of the method: as §1
# [21] = target: Fuc(a1-2)Gal(b1-3)[Fuc(a1-4)]GlcNAc(b1-3)[Gal(b1-4)GlcNAc(b1-6)]Gal(b1-4)Glc
# Summary of the method: as §1
# [22] = target: Fuc(a1-2)Gal(b1-4)Fuc(a1-3)]GlcNAc(b1-2)Man(a1-3)[Fuc(a1-2)Gal(b1-4)[Fuc(a1-3)]GlcNAc(b1-2)Man(a1-6)]Man(b1-4)GlcNAc(b1-4)GlcNAc
# Summary of the method: as §1
# [23] = target: Fuc(a1-2)Gal(b1-4)Glc
# Summary of the method: as §1
# [24] = target: Fuc(a1-2)Gal(b1-4)Glc6S
# Summary of the method: as §1
# [25] = target: Fuc(a1-2)Gal(b1-4)GlcNAc
# Summary of the method: as §1
# [26] = target: Fuc(a1-2)Gal(b1-4)GlcNAc(b1-2)Man
# Summary of the method: as §1
# [27] = target: Fuc(a1-2)Gal(b1-4)GlcNAc(b1-2)Man(a1-3)[Fuc(a1-2)Gal(b1-4)GlcNAc(b1-2)Man(a1-6)]Man(b1-4)GlcNAc(b1-4)GlcNAc
# Summary of the method: as §1
# [28] = target: Fuc(a1-2)Gal(b1-4)GlcNAc(b1-2)Man(a1-3)[Fuc(a1-2)Gal(b1-4)GlcNAc(b1-2)Man(a1-6)]Man(b1-4)GlcNAc(b1-4)[Fuc(a1-6)]GlcNAc
# Summary of the method: as §1
# [29] = target: Fuc(a1-2)Gal(b1-4)GlcNAc(b1-2)[Fuc(a1-2)Gal(b1-4)GlcNAc(b1-4)]Man(a1-3)[Fuc(a1-2)Gal(b1-4)GlcNAc(b1-2)Man(a1-6)]Man(b1-4)GlcNAc(b1-4)GlcNAc
# Summary of the method: as §1
# [30] = target: Fuc(a1-2)Gal(b1-4)GlcNAc(b1-3)Gal(b1-4)GlcNAc
# Summary of the method: as §1
binder,measurement,setting,value
B1,glycan array binding signal (z-score),[1],-0.231
same,glycan array binding signal (z-score),[2],-0.447
same,glycan array binding signal (z-score),[3],-0.298
same,glycan array binding signal (z-score),[4],-0.156
same,glycan array binding signal (z-score),[5],0.988
same,glycan array binding signal (z-score),[6],0.088
same,glycan array binding signal (z-score),[7],0.201
same,glycan array binding signal (z-score),[8],-0.527
same,glycan array binding signal (z-score),[9],0.072
same,glycan array binding signal (z-score),[10],-0.362
same,glycan array binding signal (z-score),[11],-0.322
same,glycan array binding signal (z-score),[12],-0.344
same,glycan array binding signal (z-score),[13],-0.113
same,glycan array binding signal (z-score),[14],-0.333
same,glycan array binding signal (z-score),[15],-0.149
same,glycan array binding signal (z-score),[16],-0.451
same,glycan array binding signal (z-score),[17],-0.394
same,glycan array binding signal (z-score),[18],0.506
same,glycan array binding signal (z-score),[19],0.216
same,glycan array binding signal (z-score),[20],-0.38
same,glycan array binding signal (z-score),[21],-0.189
same,glycan array binding signal (z-score),[22],2.57
same,glycan array binding signal (z-score),[23],-0.515
same,glycan array binding signal (z-score),[24],0.445
same,glycan array binding signal (z-score),[25],-0.459
same,glycan array binding signal (z-score),[26],0.465
same,glycan array binding signal (z-score),[27],-0.086
same,glycan array binding signal (z-score),[28],-0.345
same,glycan array binding signal (z-score),[29],-0.171
same,glycan array binding signal (z-score),[30],-0.585

# Looked up one by one from the entries so far (2):
binder,measurement,setting,value
B1,glycan array binding signal (z-score),[16],-0.451
same,glycan array binding signal (z-score),[28],-0.345

# From the supplement of paper PMC8728848
